Assay [1] deals with HA-CD317 (expressed in HeLa cells) (human) (UniProt Q10589). Description: co-IP; lysates of HA-CD317-transfected HeLa cells, IP with anti-HA on protein-A/G Dynabeads; IP buffer 150 mM NaCl, 50 mM Tris-HCl pH 7.4, 50 mM EDTA, 1.0% Nonidet P-40; blot with CD317 and CNX mAbs.
The target of assay [2] is endogenous CD317 (Jurkat cells) (human (endogenous in Jurkat)) (UniProt Q10589). The assay can be described thus: co-IP; Jurkat cells treated 6 h with or without 100 nM BAF, IP of endogenous CD317 (anti-CD317), blot for CNX.

Sequences of proteins named here, by UniProt entry; tags and fusion partners are left off. Residues count along the entry.
UniProt Q10589, residues 1-161: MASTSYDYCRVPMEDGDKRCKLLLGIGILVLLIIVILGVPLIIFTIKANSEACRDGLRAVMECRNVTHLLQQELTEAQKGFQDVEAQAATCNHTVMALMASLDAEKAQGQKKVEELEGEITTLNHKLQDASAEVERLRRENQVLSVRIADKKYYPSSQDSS

These are yes or no findings as the source states them, for the method shown. In cells and extracts the contact can be indirect. Some entries that bind do so weakly or less than the wild type.

B1: endogenous CNX (HeLa cells) (protein, UniProt P27824 21-592)
chain: HDGHDDDVIDIEDDLDDVIEEVEDSKPDTTAPPSSPKVTYKAPVPTGEVYFADSFDRGTLSGWILSKAKKDDTDDEIAKYDGKWEVEEMKESKLPGDKGLVLMSRAKHHAISAKLNKPFLFDTKPLIVQYEVNFQNGIECGGAYVKLLSKTPELNLDQFHDKTPYTIMFGPDKCGEDYKLHFIFRHKNPKTGIYEEKHAKRPDADLKTYFTDKKTHLYTLILNPDNSFEILVDQSVVNSGNLLNDMTPPVNPSREIEDPEDRKPEDWDERPKIPDPEAVKPDDWDEDAPAKIPDEEATKPEGWLDDEPEYVPDPDAEKPEDWDEDMDGEWEAPQIANPRCESAPGCGVWQRPVIDNPNYKGKWKPPMIDNPSYQGIWKPRKIPNPDFFEDLEPFRMTPFSAIGLELWSMTSDIFFDNFIICADRRIVDDWANDGWGLKKAADGAAEPGVVGQMIEAAEERPWLWVVYILTVALPVFLVILFCCSGKKQTSGMEYKKTDAPQPDVKEEEEEKEEEKDKGDEEEEGEEKLEEKQKSDAEEDGGTVSQEEEDRKPKAEEDEILNRSPRNRKPRRE
Consider B1, for which the binding result in assay [1] is listed as “binds”.

B2: CNX (Jurkat cells) (protein, UniProt P27824 21-592)
chain: HDGHDDDVIDIEDDLDDVIEEVEDSKPDTTAPPSSPKVTYKAPVPTGEVYFADSFDRGTLSGWILSKAKKDDTDDEIAKYDGKWEVEEMKESKLPGDKGLVLMSRAKHHAISAKLNKPFLFDTKPLIVQYEVNFQNGIECGGAYVKLLSKTPELNLDQFHDKTPYTIMFGPDKCGEDYKLHFIFRHKNPKTGIYEEKHAKRPDADLKTYFTDKKTHLYTLILNPDNSFEILVDQSVVNSGNLLNDMTPPVNPSREIEDPEDRKPEDWDERPKIPDPEAVKPDDWDEDAPAKIPDEEATKPEGWLDDEPEYVPDPDAEKPEDWDEDMDGEWEAPQIANPRCESAPGCGVWQRPVIDNPNYKGKWKPPMIDNPSYQGIWKPRKIPNPDFFEDLEPFRMTPFSAIGLELWSMTSDIFFDNFIICADRRIVDDWANDGWGLKKAADGAAEPGVVGQMIEAAEERPWLWVVYILTVALPVFLVILFCCSGKKQTSGMEYKKTDAPQPDVKEEEEEKEEEKDKGDEEEEGEEKLEEKQKSDAEEDGGTVSQEEEDRKPKAEEDEILNRSPRNRKPRRE
Regarding B2, the binding entry in assay [2] is listed as “binds”.

These data come from paper PMC10199885.
